Measured values reported in paper PMC12449053.
Construct, isoform or probe ends are uncertain for at least one entry. For some assays here: Weaker means in comparison with the reference protein, sequence or condition of that experiment. For some assays here: At least one verdict was read from the data and is not stated in words by the source.

By UniProt entry, the sequences of proteins in these tests, tags left out. Residues count along the entry.
UniProt P09651, 1-196: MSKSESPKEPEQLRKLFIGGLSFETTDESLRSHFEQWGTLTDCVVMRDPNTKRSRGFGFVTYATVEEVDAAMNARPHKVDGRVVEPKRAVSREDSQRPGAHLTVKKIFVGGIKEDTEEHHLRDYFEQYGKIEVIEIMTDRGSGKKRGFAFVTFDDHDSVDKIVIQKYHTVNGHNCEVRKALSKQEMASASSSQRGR

Columns and labels:
GST-hnRNPA1 = GST-hnRNPA1 (UniProt P09651); assay: EMSA; settings: Li+ buffer, protein:RNA 10:1; EMSA: 50 mM Tris-HCl pH 7.4, 50 mM KCl, 1 mM EDTA, 1 mM Na3VO4, 5 mM NaF, 1 mM DTT, 8% glycerol, 25 C, 30 nM RNA; recombinant protein; protein details: GST (N-terminal, pGEX4T1); label: Cy5.5 5'
UP1 = UP1 (UniProt P09651); assay: ITC; settings: 50 mM KCl, one-site fit, Kd not in material, ITC: 10 mM KPi, 25 C, 8 uM UP1, recombinant protein

Sequence | binding result (GST-hnRNPA1) | binding result (UP1)
GCAGCGGCGGCGGCAGUGGCGGCGGCGAAGGUGGCGGCGGC [41-mer 5'UTR (utr-c + utr-z)] | binds more weakly | 
GGCGGCGGAGG [utr-1] |  | binds
